Drawing on article PMC13241479, this text covers binding for six molecules.

The test has as its target T1, His-ALFA-SAA1-N terminus (human SAA1 19-94 aa) (human) (UniProt P0DJI8).
T1 sequence: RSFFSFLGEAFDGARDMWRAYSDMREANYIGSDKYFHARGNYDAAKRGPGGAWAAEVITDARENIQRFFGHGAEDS
In words: affinity purification with mass spectrometry; ALFA-SAA1 (8 μM, urea-denatured stock) added to 50% bovine plasma in PBS, 16 h at 4°C; cleared at 20,000g; ALFA-nanobody beads 1 h at 4°C; washed four times with PBS; LC-MS/MS; only the target purified.

Results are given in words; binding and its absence hold for the method and conditions named. In cells and extracts the contact can be indirect. These calls come from enrichment with a bait or labelling near it, and not all partners need be listed. Where a sequence is shown, tags or fusion partners need not be part of it.

B1: apolipoprotein E (bovine plasma) (protein, UniProt Q03247 19-316)
chain: DMEGELGPEEPLTTQQPRGKDSQPWEQALGRFWDYLRWVQTLSDQVQEELLNTQVIQELTALMEETMKEVKAYKEELEGQLGPMAQETQARVSKELQAAQARLGSDMEDLRNRLAQYRSEVQAMLGQSTEELRARMASHLRKLPKRLLRDADDLKKRLAVYQAGASEGAERSLSAIRERFGPLVEQGQSRAATLSTLAGQPLLERAEAWRQKLHGRLEEVGVRAQDRLDKIRQQLEEVHAKVEEQGNQMRLQAEAFQARLRSWFEPLVEDMQRQWAGLVEKVQLALRPSPTSPPSENH
With B1, the binding entry is given as “binds”.

B2: APOD (bovine plasma) (protein, UniProt Q32KY0 21-189)
chain: QAFHLGKCPHPPVQENFDVNKYLGKWYEIEKIPVSFEKGSCIQANYSLKENGNVEVINKELRADGTVNQIEGEATPENITEPAKLAVKFFWFMPSAPYWVLATDYENYALVYSCTTIIWLFHMDHVWILGRNPYLPPETVTYLKDILTSNNIEVEKMTITDQVNCPESM
Take B2: the binding result is on record as “binds”.

B3: PLA2G7 (bovine plasma) (protein, UniProt Q28017 22-444)
chain: FDWQDLNPVAYIESPAWVSKIQALMAAANIGQSKIPRGNGSYSVGCTDLMFDYTNKGTFLRLYYPSQDDDHSDTLWIPNKEYFLGLSKFLGTHWLVGKIMGLFFGSMTTPAAWNAHLRTGEKYPLIIFSHGLGAFRTIYSAIGIDLASHGFIVAAVEHRDGSASSTYYFKDQSAVEIGNKSWLYLRTLKRGEEEFPLRNEQLRQRAKECSQALSLILDIDHGRPVTNVLDLEFDVEQLKDSIDRDKIAIIGHSFGGATVIQTLSEDQRFRCGIALDAWMFPVGDEVYSRIPQPLFFINSERFQYPSNIIRMKKCFLPDRERKMITIRGSVHQNFVDFTFATSKIIGYLFTLKGDIDSNVAISLSNKASLAFLQKHLGLQKDFDQWDSLVEGEDHNLIPGTNINTTNHQAILQNSTGIERPNLD
For the molecule B3, the binding entry was “binds”.

B4: SERPINF2 (bovine plasma) (protein, UniProt P28800 41-492)
chain: AQQKLPPLSLLKLDNQEPGGQIAPKKAPEDCKLSPTPEQTRRLARAMMTFTTDLFSLVAQSSTRPNLILSPLSVALALSHLALGAQNQTLQRLKEVLHADSGPCLPHLLSRLCQDLGPGAFRLAARMYLQKGFPIKEDFLEQSEQLFGAKPMSLTGMKGEDLANINRWVKEATEGKIEDFLSDLPDDTVLLLLNAIHFQGFWRSKFDPNLTQRGAFHLDEQFTVPVDMMQALTYPLHWFLLEQPEIQVAHFPFKNNMSFVVLMPTRFEWNASQVLANLTWDILHQPSLSERPTKVQLPKLHLKYQLDLVATLSQLGLQELFQAPDLRGISDERLVVSSVQHQSALELSEAGVQAAAATSTAMSRMSLSSFIVNRPFLFFILEDSTSLPLFVGSVRNPNPGAQPERKEQQDSPDGKDSFQDHKGLPRGDKPFDPDLKLGPPSEEDYAQPSSPK
Take B4: the binding result is listed as “binds”.

B5: SPP2 (bovine plasma) (protein, UniProt Q27967 24-203)
chain: FPVYDYDPASLKEALSASVAKVNSQSLSPYLFRAFRSSVKRVNALDEDSLTMDLEFRIQETTCRRESEADPATCDFQRGYHVPVAVCRSTVRMSAEQVQNVWVRCHWSSSSGSSSSEEMFFGDILGSSTSRNSYLLGLTPDRSRGEPLYEPSREMRRNFPLGNRRYSNPWPRARVNPGFE
Take B5: the binding entry is on record as “binds”.

B6: GPLD1 (bovine plasma) (enzyme, UniProt P80109 24-839)
chain: CGISTHIEIGHRALEFLHLQDGSINYKELLLRHQDAYQAGSVFPDSFYPSICERGQFHDVSESTHWTPFLNASVHYIRKNYPLPWDEDTEKLVAFLFGITSHMVADVNWHSLGIEQGFLRTMAAIDFHNSYPEAHPAGDFGGDVLSQFEFKFNYLSRHWYVPAEDLLGIYRELYGRIVITKKAIVDCSYLQFLEMYAEMLAISKLYPTYSVKSPFLVEQFQEYFLGGLEDMAFWSTNIYHLTSYMLKNGTSNCNLPENPLFITCGGQQNNTHGSKVQKNGFHKNVTAALTKNIGKHINYTKRGVFFSVDSWTMDSLSFMYKSLERSIREMFIGSSQPLTHVSSPAASYYLSFPYTRLGWAMTSADLNQDGYGDLVVGAPGYSHPGRIHVGRVYLIYGNDLGLPRIDLDLDKEAHGILEGFQPSGRFGSAVAVLDFNVDGVPDLAVGAPSVGSEKLTYTGAVYVYFGSKQGQLSSSPNVTISCQDTYCNLGWTLLAADVNGDSEPDLVIGSPFAPGGGKQKGIVAAFYSGSSYSSREKLNVEAANWMVKGEEDFAWLGYSLHGVNVNNRTLLLAGSPTWKDTSSQGHLFRTRDEKQSPGRVYGYFPPICQSWFTISGDKAMGKLGTSLSSGHVMVNGTRTQVLLVGAPTQDVVSKVSFLTMTLHQGGSTRMYELTPDSQPSLLSTFSGNRRFSRFGGVLHLSDLDNDGLDEIIVAAPLRITDATAGLMGEEDGRVYVFNGKQITVGDVTGKCKSWVTPCPEEKAQYVLISPEAGSRFGSSVITVRSKEKNQVIIAAGRSSLGARLSGVLHIYRLGQD
As to B6, the binding entry is “binds”.
